Test results published in paper PMC7819943, “Rice protein-binding microarrays: a tool to detect cis-acting elements near promoter regions in rice”.
Some of the results follow.

Protein sequences, listed by entry. Tags and fused reporters are not part of them.
UniProt Q0JBA9, entry or part of it: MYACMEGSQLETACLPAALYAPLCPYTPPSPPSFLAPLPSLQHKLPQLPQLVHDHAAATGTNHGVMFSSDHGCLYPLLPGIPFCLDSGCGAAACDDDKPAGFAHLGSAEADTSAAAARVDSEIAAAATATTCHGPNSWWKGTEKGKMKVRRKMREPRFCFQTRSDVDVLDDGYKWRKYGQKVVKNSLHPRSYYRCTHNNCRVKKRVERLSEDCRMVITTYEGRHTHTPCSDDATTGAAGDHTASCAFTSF

Target: OsWRKY34 (Oryza sativa, UniProt Q0JBA9 1-250)
Test: protein-binding microarray (RPBM); PBS, 2% BSA, 51.3 ng/ul salmon testes DNA, 50 uM zinc acetate, 200 nM TF, 25 C, 1 h; high values mean tight binding
Conditions: protein: recombinant; tags: N-terminal polyhistidine and DsRed monomer fusion (pET32a); label: CyDye5-dUTP incorporated in the synthesized complementary strand; 3' TTTTT single-stranded linker to array surface; dsDNA, one strand shown
How it was run: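 Polyhistidine-tagged DsRed fusions of transcription factors, joined at the N-terminus, were expressed in E. coli BL21-CodonPlus and isolated on Ni–NTA. They were incubated at 200 nM for 1 h at 25 °C on a custom Agilent array, double-stranded and BSA-blocked, in PBS with 2% BSA, salmon testes DNA and 50 µM zinc acetate. The binding signal is per-feature fluorescence intensity (arbitrary units) read on an Axon 4000B scanner after washing.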

Row | Sequence | binding signal
1 | AGTTGAACACGTACACACACATTTCTTGAACAGTTAAATACGGAGTCACCTAGTGCAG | 9320 fluorescence intensity (a.u.)
2 | TAGTGGTGAGATATTTAATTGCGCGGGGCCCCGCCGTACTCGGAGTCACCTAGTGCAG | 9660 fluorescence intensity (a.u.)
3 | ACTACACCCACTCACAACATAGTTATACCACGATTAAAACCGGAGTCACCTAGTGCAG | 8920 fluorescence intensity (a.u.)
4 | CTCCTCTGAACCTTCCACACTGAAAACCCAGCTGCCTTCCCGGAGTCACCTAGTGCAG | 8690 fluorescence intensity (a.u.)
5 | ATATATATATATATATATATATATGTGCGCGCGCGCTTGCCGGAGTCACCTAGTGCAG | 8780 fluorescence intensity (a.u.)
6 | CAACAGACTCTTCCCCTTCGCTCGCTCGCCTCCTCTTTCCCGGAGTCACCTAGTGCAG | 8220 fluorescence intensity (a.u.)
7 | GACTGGGCTTCGGGTTCCATTTGATATTTTTCAACCTGCACGGAGTCACCTAGTGCAG | 8370 fluorescence intensity (a.u.)
8 | GGGGCACGCACGAAACTCCTCGTCTTCTTCCGCTATTACTCGGAGTCACCTAGTGCAG | 11600 fluorescence intensity (a.u.)
9 | ATAAGTCGTGCGTAACTAATCCGGACTCCATGCCGTTTTCCGGAGTCACCTAGTGCAG | 8920 fluorescence intensity (a.u.)
10 | TCTTTTGTGCAAATTTAAGTGCCTTCTTGGCTAACCTGTCCGGAGTCACCTAGTGCAG | 8600 fluorescence intensity (a.u.)
11 | CACATGTTTAACCGTTCGTCTTATTCAAATTATTTGTGAACGGAGTCACCTAGTGCAG | 13600 fluorescence intensity (a.u.)
12 | GATTCATTCCTCCTGTGGTCATGCACTAATTTTCGTATATCGGAGTCACCTAGTGCAG | 8400 fluorescence intensity (a.u.)
13 | GTCCTATCTGCGCTGCTCCATTAGCTACCTACACAGTTCGCGGAGTCACCTAGTGCAG | 11100 fluorescence intensity (a.u.)
14 | CGTCTCCTCTCTCTCTCTCTCTCTCTCTCGCCTCCGCTTCCGGAGTCACCTAGTGCAG | 8240 fluorescence intensity (a.u.)
15 | CGCCCACCTGCCGCTGCAATATATTTCGCCGCGCCCCGCGCGGAGTCACCTAGTGCAG | 8760 fluorescence intensity (a.u.)
16 | CCTACCGTGTACTTTTTTCTTTCTTTTCTTTTATTTTCTACGGAGTCACCTAGTGCAG | 14400 fluorescence intensity (a.u.)
17 | GGCACGTTCAATACTACCTCCGTTCCAAAATATAAATGATCGGAGTCACCTAGTGCAG | 8950 fluorescence intensity (a.u.)
18 | GAGTAGCTTTGCTGATGATGCCATATACTAATATCTCCTTCGGAGTCACCTAGTGCAG | 8380 fluorescence intensity (a.u.)
19 | AGTTATAGTACTAGGCTAATTTATTTCCTCACCATTTTCACGGAGTCACCTAGTGCAG | 8390 fluorescence intensity (a.u.)
20 | CGTCCACACACTCATGAATCATCGCTCACTCAAACAGCCTCGGAGTCACCTAGTGCAG | 10800 fluorescence intensity (a.u.)
21 | GGTCCGATAAATATTTAATTTTTACTTTTGGCTGGCGACACGGAGTCACCTAGTGCAG | 9620 fluorescence intensity (a.u.)
22 | AGTTTCATATATATTACTTACCATTCTAGCATTTCATTTTCGGAGTCACCTAGTGCAG | 10300 fluorescence intensity (a.u.)
23 | AACCACATCTTTACCACTTATGTCGGCGAACTTTCATATGCGGAGTCACCTAGTGCAG | 11300 fluorescence intensity (a.u.)

Two entries from above, set out differently.
Row	Sequence	binding signal
13	GTCCTATCTGCGCTGCTCCATTAGCTACCTACACAGTTCGCGGAGTCACCTAGTGCAG	11100 fluorescence intensity (a.u.)
14	CGTCTCCTCTCTCTCTCTCTCTCTCTCTCGCCTCCGCTTCCGGAGTCACCTAGTGCAG	8240 fluorescence intensity (a.u.)
